Data published in PubChem BioAssay (Tox21).
Values joined by “and” are separate entries in the source; they are usually repeats but may differ in a detail not shown here. Equal entries are not always repeated. Inconclusive means that the source gave no clear call. Such entries were picked first, then a sample of the others. For some of these results: Potencies of inconclusive entries are doubtful fits and often do not repeat. Active and inactive are the calls of the source. Unless noted, the call rests on the fitted dose curve.

Sequences of proteins named here, by UniProt entry; tags and fusion partners are left off. A change or cut given only in a name is not applied to a line headed by its entry.
UniProt P14416, whole entry, looked up: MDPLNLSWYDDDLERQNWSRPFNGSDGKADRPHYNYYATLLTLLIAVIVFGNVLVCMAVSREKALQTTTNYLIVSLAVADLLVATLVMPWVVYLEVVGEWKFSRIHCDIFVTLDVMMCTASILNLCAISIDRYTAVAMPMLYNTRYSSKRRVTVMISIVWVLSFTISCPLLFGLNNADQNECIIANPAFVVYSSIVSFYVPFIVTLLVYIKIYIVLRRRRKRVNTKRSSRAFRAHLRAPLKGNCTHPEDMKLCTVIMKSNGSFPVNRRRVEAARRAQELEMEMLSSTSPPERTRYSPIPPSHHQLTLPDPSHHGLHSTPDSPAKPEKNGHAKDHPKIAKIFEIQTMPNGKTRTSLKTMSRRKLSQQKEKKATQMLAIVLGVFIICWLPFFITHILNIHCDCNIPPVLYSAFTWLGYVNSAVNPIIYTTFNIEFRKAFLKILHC
UniProt P28223, whole entry, looked up: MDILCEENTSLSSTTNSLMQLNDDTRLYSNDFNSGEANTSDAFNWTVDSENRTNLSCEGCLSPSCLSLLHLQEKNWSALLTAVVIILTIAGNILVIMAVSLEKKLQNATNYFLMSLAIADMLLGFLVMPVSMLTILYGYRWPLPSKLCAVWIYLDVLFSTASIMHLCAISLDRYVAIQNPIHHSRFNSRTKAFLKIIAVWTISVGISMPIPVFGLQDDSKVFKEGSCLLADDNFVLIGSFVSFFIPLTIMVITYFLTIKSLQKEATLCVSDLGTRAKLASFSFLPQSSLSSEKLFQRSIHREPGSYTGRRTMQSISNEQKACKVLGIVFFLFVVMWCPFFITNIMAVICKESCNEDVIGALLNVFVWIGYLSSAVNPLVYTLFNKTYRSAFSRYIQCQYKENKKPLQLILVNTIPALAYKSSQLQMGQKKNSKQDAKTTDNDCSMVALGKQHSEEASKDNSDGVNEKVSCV
UniProt P11229: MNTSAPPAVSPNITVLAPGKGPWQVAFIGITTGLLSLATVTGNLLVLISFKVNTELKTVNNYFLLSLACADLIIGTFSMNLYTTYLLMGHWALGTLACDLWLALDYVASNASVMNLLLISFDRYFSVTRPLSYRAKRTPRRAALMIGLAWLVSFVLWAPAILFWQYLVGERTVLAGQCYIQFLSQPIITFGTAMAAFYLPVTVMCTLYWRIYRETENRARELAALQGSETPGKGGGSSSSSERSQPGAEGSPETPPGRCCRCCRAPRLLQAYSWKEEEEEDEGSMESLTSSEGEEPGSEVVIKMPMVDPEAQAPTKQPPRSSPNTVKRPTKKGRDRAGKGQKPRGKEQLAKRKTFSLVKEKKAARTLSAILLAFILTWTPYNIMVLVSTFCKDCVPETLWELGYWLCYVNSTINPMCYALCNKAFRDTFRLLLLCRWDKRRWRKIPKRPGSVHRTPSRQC

Columns and labels:
[1] = p53 small molecule agonists, cell-based qHTS assay with human liver microsomes: qHTS cell viability counter screen (AID 1963579); further: nearly all actives have a fitted effect of over 45% in size; further: potency means the concentration at half of the fitted maximal effect
Outline: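 HLM-supplemented (0.5 mg/mL final) and NADPH-supplemented (0.5 mg/mL final) p53RE-bla cultures, 4,000 cells per well, were dosed with compounds in DMSO for 16 h at 37 C; luminescent ATP detection (CellTiter-Glo, 30 min, room temperature) quantified surviving cells.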

[2] = p53 small molecule agonists, cell-based qHTS assay with rat liver microsomes: qHTS cell viability counter screen (AID 1963580); further: potency means the concentration at half of the fitted maximal effect; nearly all actives have a fitted effect of over 45% in size
Outline: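 p53RE-bla HCT-116 cells were exposed 16 h at 37 C to compounds with rat liver microsomes (0.5 mg/mL) and NADPH (0.5 mg/mL). Viability was measured in the same wells as ATP content by CellTiter-Glo luminescence.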

[3] = p53 small molecule agonists, cell-based qHTS assay: qHTS cell viability counter screen (AID 1963581); further: nearly all actives have a fitted effect of over 45% in size; further: potency means the concentration at half of the fitted maximal effect
Outline: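 Compounds are pinned onto HCT-116 p53RE-bla cells and left 16 h at 37 C. Following the reporter FRET read, ATP is quantified by CellTiter-Glo luminescence after 30 min at room temperature.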

[4] = target: Beta-2 adrenergic receptor (Homo sapiens) (UniProt P07550); assay: Adrenergic beta2 receptor (ADRB2) small molecule agonists, cell-based qHTS assay (AID 1963593); settings: CHO-ADRB2 cells, cAMP HTRF, 30 min; further: potency means the concentration at half of the fitted maximal effect;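 on activation: CHO cells stably overexpressing human ADRB2; on the % scale 0 is the no-effect control and ±100 the full control effect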
Outline: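 CHO cells stably over-expressing ADRB2 were plated overnight at 37C, then dosed with compounds plus a stimulation mix containing 100uM IBMX and 25uM Ro-20-1724 for 0.5hr at room temperature. cAMP was measured by HTRF competition, 1hr.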

[5] = p53 small molecule agonists, cell-based qHTS assay (AID 1963582; active means well fitted activation curve with a large enough effect in the signal ratio in the repeat runs, not every such curve was filed as active; inconclusive means weak or mixed curves; the % refers to the signal ratio; further: potency means the concentration at half of the fitted maximal effect); settings: HCT-116 p53RE-bla reporter, beta-lactamase FRET ratio, 16 h; activation: at 66 µM (top of the series) unless noted
Outline: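 Agonist activity was scored from beta-lactamase FRET fluorescence in p53RE-bla cells treated 16 h at 37 C with compounds in DMSO, substrate incubation being 2 h at room temperature.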

[6] = cAMP Responsive Elements (CRE) small molecule agonists, cell-based qHTS assay (AID 1963590); settings: CRE-bla HEK293T, beta-lactamase FRET ratio, 3 h; activation: at 92.4 µM (top of the series) unless noted; further: potency means the concentration at half of the fitted maximal effect
Outline: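 FRET-based beta-lactamase readout (LiveBLAzer B/G, 2 h RT) quantified CRE activation in HEK 293T CRE-bla cells after 3 h treatment with DMSO-dissolved compounds.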

[7] = cAMP Responsive Elements (CRE) small molecule antagonists, cell-based qHTS assay (AID 1963591; active means well fitted inhibition curve with a large enough effect in the signal ratio in the repeat runs, not every such curve was filed as active; inconclusive means weak or mixed curves, or effect the other way; the % refers to the signal ratio; further: potency means the concentration at half of the fitted maximal effect; on activity change, negative = inhibition: on the % scale 0 is the no-effect control and ±100 the full control effect); settings: CRE-bla HEK293T, beta-lactamase FRET ratio
Outline: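 qHTS in CRE-bla HEK 293T cells: compound in DMSO, then 0.25 uM NKH477 (final), 3 h at 37 °C/5% CO2; beta-lactamase FRET read-out after 2 h substrate incubation.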

[8] = target: D(2) dopamine receptor (Homo sapiens) (UniProt P14416); assay: Dopamine D2 receptor (DRD2) small molecule antagonists, cell-based qHTS assay (AID 1963595; active means well fitted inhibition curve with a large enough effect in the signal ratio in the repeat runs, with a control signal flat; inconclusive means weak or mixed curves, or effect the other way; the % refers to the signal ratio; further: potency means the concentration at half of the fitted maximal effect; on activity change, negative = inhibition: on the % scale 0 is the no-effect control and ±100 the full control effect); settings: HEK293-DRD2 cAMP HTRF antagonist mode; activity change, negative = inhibition: at 92.4 µM (top of the series) unless noted
Outline: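 DRD2-HEK293; 0.1 mM Ro20-1724; cpd 10 min RT; NKH477 200 nM + quinpirole 12 nM, 30 min RT; HTRF cAMP (cAMP-d2/anti-cAMP cryptate), 665/620 nm ratio after 1 h.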

[9] = target: 5-hydroxytryptamine receptor 2A (Homo sapiens) (UniProt P28223); assay: 5-hydroxytryptamine receptor 2A (HTR2A) small molecule antagonists, cell-based qHTS assay (AID 1963586); further: potency means the concentration at half of the fitted maximal effect; nearly all actives have a fitted effect of over 45% in size
Outline: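 Antagonist-mode intracellular calcium assay: DOI (4 nM) added after 5 min compound pre-incubation at room temperature to dye-loaded HTR2A-CHO cells. Fluorescence followed for 3 min, sampled every second.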

[10] = target: Beta-2 adrenergic receptor (Homo sapiens) (UniProt P07550); assay: Adrenergic beta2 receptor (ADRB2) small molecule antagonists, cell-based qHTS assay (AID 1963592); settings: CHO-ADRB2 cells, isoproterenol-stimulated cAMP HTRF ratio, 0.5 h; activity change, negative = inhibition: at 92.4 µM (top of the series) unless noted; further: nearly all actives have a fitted effect of over 50% in size; further: potency means the concentration at half of the fitted maximal effect; on activity change, negative = inhibition: on the % scale 0 is the no-effect control and ±100 the full control effect
Outline: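 Cells (CHO, stable ADRB2 overexpression) incubated 18-20hr at 37C; compounds added from DMSO; agonist mix (1nM isoproterenol, 100uM IBMX, 25uM Ro-20-1724) added; 0.5hr RT; d2-cAMP and anti-cAMP-cryptate added; 1hr RT; 665/615 nm read.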

[11] = target: Muscarinic acetylcholine receptor M1 (Homo sapiens) (UniProt P11229); assay: Cholinergic receptor muscarinic 1 (CHRM1) small molecule antagonists, cell-based qHTS assay (AID 1963588); further: nearly all actives have a fitted effect of over 40% in size; further: potency means the concentration at half of the fitted maximal effect
Outline: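 CHRM1-CHO calcium-flux assay, antagonist mode. Cells were seeded 18 h, dye-loaded 1 h at 37 C and given compound for 5 min at RT, then acetylcholine was added at 50nM. FDSS fluorescence was read 3 min; 15 concentrations, three runs.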

[12] = target: D(2) dopamine receptor (Homo sapiens) (UniProt P14416); assay: Dopamine D2 receptor (DRD2) small molecule agonists, cell-based qHTS assay (AID 1963594); settings: HEK293-DRD2 cAMP HTRF, agonist mode, 30 min; further: on the % scale 0 is the no-effect control and ±100 the full control effect; nearly all actives have a fitted effect of over 35% in size
Outline: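 HEK293 cells stably expressing human DRD2, pre-treated with PDE inhibitor Ro20-1724 (0.1 mM final) and compound 10 min at room temperature, then stimulated with NKH477 (200nM […]) for 30 min. cAMP read by HTRF (665/620 nm).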

[13] = activation: at 92.4 µM (top of the series) unless noted
[14] = activity change, negative = inhibition: at 92.4 µM (top of the series) unless noted

Q: Which Potency [1] does the source give for `O=c1cccccc1O` here?
A: Its Potency is “inactive”.

Q: What about the Potency [2] of the same compound?
A: The Potency was active: 29.4 µM.

Q: What about the Potency [3] of the same compound?
A: Its Potency is inconclusive: 0.166 µM [rising, partial curve, poor fit].

Q: What about the Potency [4, 13] of the same compound?
A: The Potency was inconclusive: 0.495 µM [inhibitor, single point].

Q: Which Potency [1] does the source give for `CO[Si](CCCS)(OC)OC` here?
A: The Potency was inconclusive: 1.82 µM [cytotoxic, single point].

Q: What about the Potency [3] of the same compound?
A: The Potency was “inactive”.

Q: With `CCCCCCCCCC#N` as the compound, how does the Potency [1] read?
A: The Potency was active: 11.4 µM.

Q: What about the Potency [2] of the same compound?
A: The Potency was inconclusive: 51.1 µM [cytotoxic, single point].

Q: And the Potency [4, 13]?
A: Its Potency is inconclusive: 1.36 µM [inhibitor].

Q: For `C=CC(=O)OCCOCCOC(=O)C=C`, which Potency [1] is on record?
A: The Potency was inconclusive: 18.3 µM [cytotoxic, single point].

Q: What about the Potency [3] of the same compound?
A: Its Potency is inconclusive: 18.3 µM [cytotoxic, single point].

Q: And the Potency [5]?
A: The Potency was inconclusive: 32.5 µM [fluorescent, partial curve].

Q: And the Potency [6]?
A: The Potency was inconclusive: 54.7 µM [rising, partial curve].

Q: What about the Potency [7, 14] of the same compound?
A: The Potency was inconclusive: 61.4 µM [rising, single point].

Q: And the Potency [8]?
A: The Potency was “inactive”.

Q: With `C=CCOc1ccccc1OCC(O)CNC(C)C` (stereo unspecified) as the compound, how does the Potency [1] read?
A: The Potency was inconclusive: 1.58 µM [rising, full curve].

Q: And the Potency [3]?
A: The Potency was inconclusive: 5.61 µM [rising, partial curve].

Q: What does the source list for `CC1CCCO1` (stereo unspecified)?
A: Potency [1]: inactive; Potency [3]: inactive

Q: For `O=C(O)Cc1cccc2ccccc12`, which Potency [1] is on record?
A: Its Potency is inconclusive: 0.0408 µM [rising, full curve, poor fit].

Q: And the Potency [3]?
A: Its Potency is inconclusive: 1.02 µM.

Q: What about the Potency [9] of the same compound?
A: Its Potency is inconclusive: 10.6 µM [inhibitor, single point].

Q: What about the activity change, negative = inhibition [7, 14] of the same compound?
A: Its activity change, negative = inhibition is inconclusive: 0.466%.

Q: And the activity change, negative = inhibition [10]?
A: The activity change, negative = inhibition was inconclusive: -6.63%.

Q: What about the activation [4, 13] of the same compound?
A: The activation was inconclusive: 74.2%.

Q: And the activation ([4]; at 42.5 µM (top of the series))?
A: Its activation is inactive: 1.79%.

Q: What about the activation ([4]; at 92.4 µM (top of the series)) of the same compound?
A: The activation was inactive: 4.24%.

Q: And the Potency [8]?
A: The Potency was inconclusive: 68.6 µM [inhibitor, single point].

Q: Which Potency [1] does the source give for `CCCCCCCCCCn1cc[n+](CCCCCCCCCC)c1C` here?
A: The Potency was inconclusive: 40.8 µM [cytotoxic].

Q: What about the Potency [3] of the same compound?
A: Its Potency is active: 36.4 µM.

Q: And the Potency [5]?
A: The Potency was inconclusive: 36.4 µM [falling, partial curve].

Q: And the Potency [9]?
A: The Potency was inconclusive: 59.5 µM [inhibitor, single point].

Q: What about the Potency [11] of the same compound?
A: The Potency was active: 2.98 µM.

Q: What about the Potency [6] of the same compound?
A: The Potency was inconclusive: 2.17 µM [fluorescent, partial curve].

Q: And the Potency [7, 14]?
A: Its Potency is active: 21.7 µM.

Q: What about the Potency [10] of the same compound?
A: Its Potency is active: 27.3 µM.

Q: What about the Potency [4, 13] of the same compound?
A: The Potency was inconclusive: 27.3 µM [inhibitor, partial curve, poor fit].

Q: And the Potency [8]?
A: Its Potency is inconclusive: 68.7 µM [inhibitor, single point].

Q: For `CC(C)NCC(O)c1ccc(O)c(O)c1` (stereo unspecified), which Potency [1] is on record?
A: The Potency was inconclusive: 18 µM [rising, single point].

Q: And the Potency [2]?
A: Its Potency is inconclusive: 4.03 µM [cytotoxic, full curve].

Q: And the activity change, negative = inhibition [7, 14]?
A: The activity change, negative = inhibition was inconclusive: 6.54% [at 42.4 µM].

Q: What about the Potency [8] of the same compound?
A: Its Potency is active: 303 nM and active: 969 nM and active: 596 nM.

Q: Which results are given for `CNCCC(Oc1ccccc1OC)c1ccccc1` (stereo unspecified)?
A: Potency [1]: inconclusive: 12.6 µM [rising, full curve, poor fit]; Potency [3]: inconclusive: 8.9 µM [rising, full curve]; Potency [5]: inconclusive: 6.3 µM [rising, partial curve, poor fit]; Potency [9]: inconclusive: 8.18 µM [inhibitor]; Potency [11]: active: 16.3 µM; activity change, negative = inhibition [10]: inconclusive: -19% [at 42.5 µM]; activation [4, 13]: inconclusive: -46.3% [at 42.5 µM]

Q: For `O=c1c(O)c(-c2ccc(O)c(O)c2)oc2cc(O)cc(O)c12`, which Potency [1] is on record?
A: Its Potency is “inactive”.

Q: And the Potency [3]?
A: The Potency was inconclusive: 40.8 µM [rising, single point].

Q: And the Potency [5]?
A: Its Potency is inconclusive: 45.8 µM [activator, single point] and inconclusive: 46.2 µM [activator, single point] and inconclusive: 45.8 µM [activator].

Q: And the Potency [11]?
A: The Potency was inconclusive: 2.05 µM [inhibitor, full curve, poor fit].

Q: What about the Potency [7, 14] of the same compound?
A: Its Potency is inconclusive: 61.1 µM [rising, partial curve, poor fit].

Q: What about the activity change, negative = inhibition ([7]; at 42.4 µM (top of the series)) of the same compound?
A: The activity change, negative = inhibition was inconclusive: -13.2%.

Q: What about the activity change, negative = inhibition ([7]; at 92.4 µM (top of the series)) of the same compound?
A: Its activity change, negative = inhibition is inconclusive: -35.8%.

Q: What about the Potency [10] of the same compound?
A: Its Potency is inconclusive: 68.6 µM.

Q: What about the activity change, negative = inhibition [10] of the same compound?
A: The activity change, negative = inhibition was inconclusive: -26% [at 42.5 µM].

Q: And the Potency [4, 13]?
A: The Potency was inconclusive: 68.7 µM [inhibitor, partial curve, poor fit] and inconclusive: 43.6 µM [inhibitor, partial curve, poor fit].

Q: What about the activation [4, 13] of the same compound?
A: Its activation is inconclusive: -46.8%.

Q: And the activation [12, 13]?
A: Its activation is inconclusive: 33.6%.

Q: And the activation ([12]; at 42.5 µM (top of the series))?
A: The activation was inactive: 21.2%.

Q: What about the activation ([12]; at 92.4 µM (top of the series)) of the same compound?
A: The activation was inactive: 5.41% and inactive: 4.38%.

Q: And the Potency [8]?
A: Its Potency is inconclusive: 48.6 µM [cytotoxic, partial curve, poor fit] and inconclusive: 668 nM [inhibitor, single point].

Q: What does the source list for `Nc1ccccc1O`?
A: Potency [1]: active: 28.5 µM; Potency [3]: active: 32 µM; Potency [5]: inactive; Potency [6]: inconclusive: 8.52 µM [rising, full curve, poor fit]; activity change, negative = inhibition [7, 14]: inconclusive: 5.15%; activation [4, 13]: inconclusive: -7.37%

Q: What does the source list for `CN(C)CCCOC1(Cc2ccccc2)CCCCCC1`?
A: Potency [1]: inconclusive: 9.98 µM [rising, partial curve]; Potency [3]: inconclusive: 7.07 µM [rising, partial curve, poor fit]; Potency [5]: inconclusive: 19.9 µM [rising, single point]; Potency [9]: active: 10.3 µM; Potency [11]: inactive; Potency [4, 13]: inactive
